PubChem BioAssay AID504791 – Drosophila RNAi Screening Center, 2011

Assay: 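Genes of the fly required for silencing by miRNA, siRNA or endo-siRNA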 (primary screen)
System: Drosophila S2-derived reporter cells
Reagents: long dsRNA against Drosophila genes, about 150-250 ng dsRNA per well (siRNA assay); about 80-120 ng (miRNA assay)
Timing: about 5 days (siRNA assay); about 4 days (miRNA assay)
Conditions: copper sulfate induction of reporters: 25 µM (siRNA assay); 200 mM stated (miRNA assay), 1-2 days before reading
Measurement: 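Dual luciferase assay: Renilla to firefly signal ratio in each well, scaled to the mean ratio of its plate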
Scale: siRNA reporter hit score: higher = 3 marks a strong hit with raised ratio; -3 a strong hit with lowered ratio
Rule for the call: 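First-pass picks had plate-scaled ratios over 1.5 for the siRNA assay, over 1.6 for the miRNA assay, or under 0.6; two distinct dsRNAs had to score alike on retest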
The deposit covers about 23,000 reagents; shown is a random part of those with a known target gene and a result. Of all reagents, 199 (0.86%) were called active. 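Plate-scaled ratios behind the calls are not deposited; printed light signals are raw; many rows marked increased or decreased are still called inactive.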 Unmarked entries are inactive. Names joined by + are all predicted targets of the reagent.

CG10862 [DRSC08170] scored stable assay Renilla, run 1 (luminescence) = 7062; stable assay firefly, run 1 (luminescence) = 3.13e5.
For CG11638 [DRSC18167], the entry reads stable assay Renilla, run 1 (luminescence) = 6675; stable assay firefly, run 1 (luminescence) = 4.00e5.
After knock-down of CG11638 [DRSC18640] the results were stable assay Renilla, run 1 (luminescence) = 6330; stable assay firefly, run 1 (luminescence) = 3.22e5.
Knock-down of Or83a [DRSC12357] gave: stable assay Renilla, run 1 (luminescence) = 7479; stable assay firefly, run 1 (luminescence) = 3.30e5.
Knock-down of CG14907 + Mettl4 [DRSC15026] resulted in: stable assay Renilla, run 1 (luminescence) = 6822; stable assay firefly, run 1 (luminescence) = 3.86e5.
Depletion of CG14907 + Mettl4 [DRSC15027] resulted in: stable assay Renilla, run 1 (luminescence) = 7856; stable assay firefly, run 1 (luminescence) = 3.41e5.
After knock-down of sigmar [DRSC04449], the screen gave stable assay Renilla, run 1 (luminescence) = 12014; stable assay firefly, run 1 (luminescence) = 9.37e5.
CG6294 + CG6299 [DRSC19980] scored stable assay Renilla, run 1 (luminescence) = 5463; stable assay firefly, run 1 (luminescence) = 4.93e5.
Knock-down of l(2)05287 [DRSC02151] resulted in: stable assay Renilla, run 1 (luminescence) = 8002; stable assay firefly, run 1 (luminescence) = 8.13e5.
Silencing of l(2)05287 [DRSC02152] resulted in: stable assay Renilla, run 1 (luminescence) = 6044; stable assay firefly, run 1 (luminescence) = 3.74e5.
For Mkrn1 [DRSC11870] the deposit lists stable assay Renilla, run 1 (luminescence) = 5224; stable assay firefly, run 1 (luminescence) = 5.66e5.
After knock-down of PEK [DRSC12361], the screen gave stable assay Renilla, run 1 (luminescence) = 7636; stable assay firefly, run 1 (luminescence) = 3.57e5.
For Tsp74F [DRSC10508] the deposit lists stable assay Renilla, run 1 (luminescence) = 7184; stable assay firefly, run 1 (luminescence) = 3.88e5.
After knock-down of l(3)psg2 [DRSC10484] the results were stable assay Renilla, run 1 (luminescence) = 9566; stable assay firefly, run 1 (luminescence) = 5.32e5.
Knock-down of CG4074 [DRSC11752] gave: stable assay Renilla, run 1 (luminescence) = 7306; stable assay firefly, run 1 (luminescence) = 3.82e5.
Knock-down of Ddr [DRSC00922] came out at: stable assay Renilla, run 1 (luminescence) = 5063; stable assay firefly, run 1 (luminescence) = 3.40e5.
Knock-down of Ddr [DRSC00923] gave: stable assay Renilla, run 1 (luminescence) = 4876; stable assay firefly, run 1 (luminescence) = 3.36e5.
With knock-down of Ddr [DRSC02150], the record shows stable assay Renilla, run 1 (luminescence) = 8390; stable assay firefly, run 1 (luminescence) = 5.00e5.
For Ddr [DRSC03229] the deposit lists stable assay Renilla, run 1 (luminescence) = 6222; stable assay firefly, run 1 (luminescence) = 6.79e5.
Silencing of Ddr [DRSC03230] resulted in: stable assay Renilla, run 1 (luminescence) = 7084; stable assay firefly, run 1 (luminescence) = 5.90e5.
For Ddr [DRSC22818] the deposit lists stable assay Renilla, run 1 (luminescence) = 3700; stable assay firefly, run 1 (luminescence) = 3.30e5.
Knock-down of defl [DRSC10300] came out at: siRNA reporter hit score -3; stable assay Renilla, run 1 (luminescence) = 9215; stable assay firefly, run 1 (luminescence) = 6.93e5.
Setx [DRSC10859] gave stable assay Renilla, run 1 (luminescence) = 4924; stable assay firefly, run 1 (luminescence) = 3.69e5.
GABA-B-R2 [DRSC14134] showed stable assay Renilla, run 1 (luminescence) = 4572; stable assay firefly, run 1 (luminescence) = 3.51e5.
With knock-down of CG10943 [DRSC09805] the results were stable assay Renilla, run 1 (luminescence) = 7206; stable assay firefly, run 1 (luminescence) = 4.28e5.
Silencing of CG43339 + CG43338 [DRSC02466] resulted in: stable assay Renilla, run 1 (luminescence) = 7226; stable assay firefly, run 1 (luminescence) = 1.38e6.
With knock-down of Pmvk [DRSC02032], the record shows stable assay Renilla, run 1 (luminescence) = 6126; stable assay firefly, run 1 (luminescence) = 3.67e5.
Depletion of Gr64f [DRSC08447] came out at: stable assay Renilla, run 1 (luminescence) = 5399; stable assay firefly, run 1 (luminescence) = 3.16e5.

Sorted by “stable assay firefly, run 1 (luminescence)” (ascending): some entries from above.
GABA-B-R2 [DRSC14134] | stable assay Renilla, run 1 (luminescence) = 4572; stable assay firefly, run 1 (luminescence) = 3.51e5
Setx [DRSC10859] | stable assay Renilla, run 1 (luminescence) = 4924; stable assay firefly, run 1 (luminescence) = 3.69e5
defl [DRSC10300] | siRNA reporter hit score = -3; stable assay Renilla, run 1 (luminescence) = 9215; stable assay firefly, run 1 (luminescence) = 6.93e5
